The exact form of at least one protein or probe is not confirmed. Where a protein sequence is shown, tags need not be part of it.

This series has as its target T1, rUR full-length (ubiquitous nuclear receptor) (Rattus norvegicus) (UniProt Q62755).
T1 sequence: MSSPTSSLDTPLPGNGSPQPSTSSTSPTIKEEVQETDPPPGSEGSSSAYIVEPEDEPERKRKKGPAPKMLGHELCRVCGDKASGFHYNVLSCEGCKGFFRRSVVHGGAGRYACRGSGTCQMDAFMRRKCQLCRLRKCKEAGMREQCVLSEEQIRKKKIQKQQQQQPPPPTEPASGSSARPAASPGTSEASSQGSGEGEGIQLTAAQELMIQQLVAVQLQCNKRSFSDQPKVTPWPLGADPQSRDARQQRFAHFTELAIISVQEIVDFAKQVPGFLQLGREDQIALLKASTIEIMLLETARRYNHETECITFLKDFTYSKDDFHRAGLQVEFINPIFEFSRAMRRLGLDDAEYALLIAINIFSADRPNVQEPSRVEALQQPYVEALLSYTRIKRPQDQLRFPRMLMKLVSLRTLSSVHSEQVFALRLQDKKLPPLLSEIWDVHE
In words: EMSA. The conditions noted are these: similar affinity DR-0 to DR-6, mainly homodimer; protein translated in vitro; label: 32P.
For “GATCCTCAGGTCACAGGAGGTCAGAAGCT (double strand) [DR-4]”, the binding result is reported as “binds”.
To “GATCCTCAGGTCAGAGGTCAGAAGCT (double strand) [DR-1]” belongs “binds”.
The entry for “GATCCTCAGGTCACCAAGGAGGTCAGAAGCT (double strand) [DR-6]” is “binds”; for “GATCCTCAGGTCAAGAGGTCAGAAGCT (double strand) [DR-2]” it is “binds”; for “GATCCTCAGGTCAAGGAGGTCAGAAGCT (double strand) [DR-3]” it is “binds”.
Take “GATCCTCAGGTCAAGGTCAGAAGCT (double strand) [DR-0]”: the binding result was “binds”.
Consider “GATCCTCAGGTCACCAGGAGGTCAGAAGCT (double strand) [DR-5]”, for which the binding result is on record as “binds”.

For the origin of these results see patent publication US5639616, “Isolated nucleic acid encoding a ubiquitous nuclear receptor” (Arch Development Corporation).
